Experiment [1] has as its target AdiY-H34A/H60A variant (N-terminally His6-tagged) (E. coli) (UniProt P33234). Put plainly: SEC; Superdex 75 Increase 10/300 GL, 50 mM sodium phosphate pH 5.8, 300 mM NaCl, 2% glycerol, 2 mM DTT, 2 mM EDTA; 0.5 mL sample at 0.5 mg/mL; calibrated with molecular weight standards; both purified.
Experiment [2] has the same target. The experiment is described as follows: SEC; Superdex 75 Increase 10/300 GL, 50 mM sodium phosphate pH 7.4, 300 mM NaCl, 2% glycerol, 2 mM DTT, 2 mM EDTA; 0.5 mL sample at 0.5 mg/mL; calibrated with molecular weight standards; both purified. (In general: SEC sorts molecules by how far they enter the pores of the column.)

Results are given in words; binding and its absence hold for the method and conditions named. Where a sequence is shown, tags or fusion partners need not be part of it.

B1: AdiY-H34A/H60A variant (N-terminally His6-tagged) (protein, UniProt P33234 1-253)
chain: MRICSDQPCIVLLTEKDVWIRVNGKEPISLKANAMALLNCENNIIDVSSLNNTLVAHISADIIKDYLRFLNKDLSQIPVWQRSATPILTLPCLTPDVFRVAAQHSMMPAETESEKERTRALLFTVLSRFLDSKKFVSLMMYMLRNCVSDSVYQIIESDIHKDWNLSMVASCLCLSPSLLKKKLKSENTSYSQIITTCRMRYAVNELMMDGKNISQVSQSCGYNSTSYFISVFKDFYGMTPLHYVSQHRERTVA
Turning to B1, the binding entry in experiment [1] and in experiment [2] was “no binding (tested: 0.5 mg/mL)” in each case.
